Measured data: PubChem BioAssay AID1259254 (NCATS, 2017)

Assay: 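Gene knock-downs that lead to re-replication, shown by excess G2 DNA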 (primary screen)
System: human HCT116 colorectal cancer cells
Reagent: single siRNA against human genes
Time to read-out: 3 days
Measurement: 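Nuclei stained with Hoechst and imaged; cell-cycle phase assigned by DNA content; G2 share scaled per plate, non-targeting siRNA 0%, GMNN siRNA 100%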
Scale: G2 robust z-score and G2 cells, % of GMNN control: higher = more G2 cells, more excess DNA replication
Hit rule: 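An siRNA counts as active if its G2 robust z-score lies at least 5 MADs above the screen median; here such calls match roughly 38% of GMNN control or more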
In all, the deposit lists about 59,000 reagents; below is a part drawn at random. About 1,550 of all reagents (2.6%) count as active. 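G2 share is only a proxy for re-replication; each gene was hit by three separate siRNAs, and active genes were retested.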 Reagents against one gene are numbered here. Not all columns of the deposit are shown. No sequences are given here. Not given: the amount of reagent.

| Gene | reagent | G2 robust z-score | G2 cells, % of GMNN control | activity call |
| --- | --- | --- | --- | --- |
| TRIM26 (tripartite motif containing 26) | 1 | 2.09 | 17.7 | inactive |
| TRIM26 (tripartite motif containing 26) | 2 | -0.506 | -0.589 | inactive |
| TRIM26 (tripartite motif containing 26) | 3 | -0.418 | 0.0246 | inactive |
| NDUFAB1 (NADH:ubiquinone oxidoreductase subunit AB1) | 1 | -1.11 | -4.87 | inactive |
| NDUFAB1 (NADH:ubiquinone oxidoreductase subunit AB1) | 2 | 0.243 | 4.68 | inactive |
| NDUFAB1 (NADH:ubiquinone oxidoreductase subunit AB1) | 3 | -0.815 | -2.77 | inactive |
| MMP11 (matrix metallopeptidase 11) | 1 | 5.97 | 44.9 | active |
| MMP11 (matrix metallopeptidase 11) | 2 | -0.407 | 0.105 | inactive |
| MMP11 (matrix metallopeptidase 11) | 3 | -1.02 | -4.2 | inactive |
| GBP7 (guanylate binding protein 7) | 1 | -0.203 | 1.54 | inactive |
| GBP7 (guanylate binding protein 7) | 2 | 0.919 | 9.43 | inactive |
| GBP7 (guanylate binding protein 7) | 3 | 0.754 | 8.27 | inactive |
| SCGB3A2 (secretoglobin family 3A member 2) | 1 | 0.837 | 8.86 | inactive |
| SCGB3A2 (secretoglobin family 3A member 2) | 2 | -0.416 | 0.0433 | inactive |
| SCGB3A2 (secretoglobin family 3A member 2) | 3 | -0.933 | -3.59 | inactive |
| HOXA10 (homeobox A10) | 1 | -0.44 | -0.132 | inactive |
| HOXA10 (homeobox A10) | 2 | -0.846 | -2.98 | inactive |
| HOXA10 (homeobox A10) | 3 | -1.3 | -6.21 | inactive |
| SPRR4 (small proline rich protein 4) | 1 | -1.47 | -7.38 | inactive |
| SPRR4 (small proline rich protein 4) | 2 | 1.65 | 14.5 | inactive |
| SPRR4 (small proline rich protein 4) | 3 | 5.99 | 45.1 | active |
| OXCT2 (3-oxoacid CoA-transferase 2) | 1 | -0.537 | -0.809 | inactive |
| OXCT2 (3-oxoacid CoA-transferase 2) | 2 | 0.0297 | 3.18 | inactive |
| OXCT2 (3-oxoacid CoA-transferase 2) | 3 | -0.788 | -2.57 | inactive |
| VSX2 (visual system homeobox 2) | 1 | 0.833 | 8.83 | inactive |
| VSX2 (visual system homeobox 2) | 2 | 0.196 | 4.34 | inactive |
| VSX2 (visual system homeobox 2) | 3 | 3.76 | 29.4 | inactive |
| GCNT3 (glucosaminyl (N-acetyl) transferase 3, mucin type) | 1 | 1.34 | 12.4 | inactive |
| GCNT3 (glucosaminyl (N-acetyl) transferase 3, mucin type) | 2 | 1.73 | 15.1 | inactive |
| GCNT3 (glucosaminyl (N-acetyl) transferase 3, mucin type) | 3 | -0.315 | 0.75 | inactive |

3 entries from above, reformatted:
Gene | reagent | G2 robust z-score | G2 cells, % of GMNN control | activity call
GBP7 (guanylate binding protein 7) | 3 | 0.754 | 8.27 | inactive
SCGB3A2 (secretoglobin family 3A member 2) | 1 | 0.837 | 8.86 | inactive
SCGB3A2 (secretoglobin family 3A member 2) | 2 | -0.416 | 0.0433 | inactive
